# Results taken from paper doi:10.1101/2021.01.20.427456.
# Amino acid sequences for entries named in this document (tags omitted).
# UniProt Q9H1Y0: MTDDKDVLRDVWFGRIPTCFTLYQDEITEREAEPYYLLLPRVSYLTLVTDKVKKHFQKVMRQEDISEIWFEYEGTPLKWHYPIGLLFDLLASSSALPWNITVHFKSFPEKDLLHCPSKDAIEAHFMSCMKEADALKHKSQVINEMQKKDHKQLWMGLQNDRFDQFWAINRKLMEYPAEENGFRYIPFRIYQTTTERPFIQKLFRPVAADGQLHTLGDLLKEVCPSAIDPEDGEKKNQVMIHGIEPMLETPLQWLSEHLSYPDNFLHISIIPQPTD
# UniProt P46934: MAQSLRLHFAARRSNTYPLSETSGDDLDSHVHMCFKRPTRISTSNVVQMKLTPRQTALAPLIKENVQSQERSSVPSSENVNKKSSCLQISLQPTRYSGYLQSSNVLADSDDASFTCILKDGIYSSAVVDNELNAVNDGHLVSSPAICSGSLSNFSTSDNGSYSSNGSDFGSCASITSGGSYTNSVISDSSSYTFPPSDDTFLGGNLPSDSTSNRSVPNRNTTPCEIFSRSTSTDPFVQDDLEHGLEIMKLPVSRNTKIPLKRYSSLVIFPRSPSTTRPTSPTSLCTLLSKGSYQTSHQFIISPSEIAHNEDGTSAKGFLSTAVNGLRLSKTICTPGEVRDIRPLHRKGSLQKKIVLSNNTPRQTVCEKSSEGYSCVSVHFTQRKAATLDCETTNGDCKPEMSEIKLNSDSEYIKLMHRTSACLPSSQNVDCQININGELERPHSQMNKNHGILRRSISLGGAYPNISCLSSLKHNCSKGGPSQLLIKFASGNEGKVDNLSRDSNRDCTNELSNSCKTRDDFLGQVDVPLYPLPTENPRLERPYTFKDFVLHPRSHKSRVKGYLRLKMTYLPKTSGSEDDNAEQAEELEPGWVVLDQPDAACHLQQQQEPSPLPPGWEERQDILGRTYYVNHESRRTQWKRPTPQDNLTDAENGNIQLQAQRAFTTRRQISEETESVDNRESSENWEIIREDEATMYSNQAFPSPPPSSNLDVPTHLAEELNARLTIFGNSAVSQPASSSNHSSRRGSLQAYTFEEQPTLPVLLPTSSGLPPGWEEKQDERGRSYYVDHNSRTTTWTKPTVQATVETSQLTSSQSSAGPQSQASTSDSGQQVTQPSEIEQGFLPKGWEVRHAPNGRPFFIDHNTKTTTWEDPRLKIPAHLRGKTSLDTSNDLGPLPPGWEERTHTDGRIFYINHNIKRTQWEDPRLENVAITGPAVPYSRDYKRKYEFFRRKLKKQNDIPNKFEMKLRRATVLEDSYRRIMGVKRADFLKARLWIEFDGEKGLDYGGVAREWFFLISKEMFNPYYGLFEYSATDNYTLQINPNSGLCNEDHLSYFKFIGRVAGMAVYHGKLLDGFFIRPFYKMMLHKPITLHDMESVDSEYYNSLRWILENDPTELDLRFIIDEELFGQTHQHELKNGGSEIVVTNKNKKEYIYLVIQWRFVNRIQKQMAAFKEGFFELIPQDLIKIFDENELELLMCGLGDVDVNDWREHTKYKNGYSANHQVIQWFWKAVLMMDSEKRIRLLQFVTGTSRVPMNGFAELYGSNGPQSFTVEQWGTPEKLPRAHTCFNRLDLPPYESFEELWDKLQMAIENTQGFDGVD
# These are yes or no findings as the source states them, for the method shown. Binding seen in cells or lysates may run through a third protein. Some entries that bind do so weakly or less than the wild type. For some assays here: Tags and fused reporters may be left off the sequences shown.
# What was measured:
# [1] = molecular target: T1, FLAG-ATG7 (human) (UniProt O95352); assay: co-IP
# T1 sequence: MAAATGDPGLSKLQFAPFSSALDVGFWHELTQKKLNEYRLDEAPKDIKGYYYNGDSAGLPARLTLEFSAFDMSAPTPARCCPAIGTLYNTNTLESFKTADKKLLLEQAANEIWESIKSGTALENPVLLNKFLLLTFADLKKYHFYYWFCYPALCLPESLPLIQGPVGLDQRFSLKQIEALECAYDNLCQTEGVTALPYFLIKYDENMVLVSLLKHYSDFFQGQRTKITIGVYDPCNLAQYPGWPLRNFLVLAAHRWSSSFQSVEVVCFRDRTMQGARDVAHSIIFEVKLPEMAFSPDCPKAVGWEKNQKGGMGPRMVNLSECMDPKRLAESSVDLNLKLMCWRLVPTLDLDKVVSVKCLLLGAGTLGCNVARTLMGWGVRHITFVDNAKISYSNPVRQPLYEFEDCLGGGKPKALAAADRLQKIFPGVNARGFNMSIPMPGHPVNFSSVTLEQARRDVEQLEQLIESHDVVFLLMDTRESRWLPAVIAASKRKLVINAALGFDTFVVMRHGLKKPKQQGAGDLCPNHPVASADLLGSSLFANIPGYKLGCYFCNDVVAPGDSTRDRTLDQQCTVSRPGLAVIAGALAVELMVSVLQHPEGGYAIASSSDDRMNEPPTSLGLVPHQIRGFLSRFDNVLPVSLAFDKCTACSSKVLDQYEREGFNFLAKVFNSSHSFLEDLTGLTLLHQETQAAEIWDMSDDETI
# [2] = molecular target: FLAG-ATG5 (human) (UniProt Q9H1Y0); assay: co-IP
substance,measurement,setting,value
"E3 ubiquitin ligase NEDD4 (neural precursor cell expressed, developmentally down-regulated 4) (from UniProt P46934 1-1319) (enzyme)",binding,[1],binds
same,binding,[2],binds
